# Results from one PubChem assay

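Malaria parasite (P. falciparum) lines kept in red blood cells; parasite DNA is measured by SYBR Green fluorescence after lysis, 72 h after compound addition.
Each compound was titrated across a series from about 0.000037 to 29 µM.
The number is the fitted AC50, the concentration giving a half-maximal change in signal; a lower value means higher potency, whether the curve shows a decrease or an increase.
Calls follow the curve class and fit quality: every row here is inconclusive, covering signal-raising curves and weak, poorly fitted, partial or highest-dose-only inhibition curves.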

Values are in µM.
All entries here are filed as inconclusive.
Only part of the assay is shown, chiefly results filed as inconclusive.
A potency from a partial, single-point or poor curve is only a rough figure.

| compound | setting | potency (µM) | remark |
|---|---|---|---|
| `CC/C(=C(\c1ccccc1)c1ccc(OCCN(C)C)cc1)c1ccccc1` | N140 | 11.22 | inhibitor, single point |
| `CC/C(=C(\c1ccccc1)c1ccc(OCCN(C)C)cc1)c1ccccc1` | ATS189 | 12.59 | inhibitor, single point |
| `CC/C(=C(\c1ccccc1)c1ccc(OCCN(C)C)cc1)c1ccccc1` | ECU | 12.59 | inhibitor, single point |
| `CC/C(=C(\c1ccccc1)c1ccc(OCCN(C)C)cc1)c1ccccc1` | CP201 | 19.01 | inhibitor, single point |
| `CC/C(=C(\c1ccccc1)c1ccc(OCCN(C)C)cc1)c1ccccc1` | CP250 | 10 | inhibitor, single point |
| `CC/C(=C(\c1ccccc1)c1ccc(OCCN(C)C)cc1)c1ccccc1` | CP185 | 11.22 | inhibitor, single point |
| `CC/C(=C(\c1ccccc1)c1ccc(OCCN(C)C)cc1)c1ccccc1` | CP211 | 19.01 | inhibitor, single point |
| `CC/C(=C(\c1ccccc1)c1ccc(OCCN(C)C)cc1)c1ccccc1` | CP286 | 14.13 | inhibitor, single point |
| `CC/C(=C(\c1ccccc1)c1ccc(OCCN(C)C)cc1)c1ccccc1` | DIV30 | 12 | inhibitor, single point |
| `CC/C(=C(\c1ccccc1)c1ccc(OCCN(C)C)cc1)c1ccccc1` | CP335 | 5.358 | inhibitor, partial curve |
| `CC/C(=C(\c1ccccc1)c1ccc(OCCN(C)C)cc1)c1ccccc1` | 3D7 | 17.78 | inhibitor, single point |
| `CC/C(=C(\c1ccccc1)c1ccc(OCCN(C)C)cc1)c1ccccc1` | CP215 | 19.01 | inhibitor, single point |
| `CC/C(=C(\c1ccccc1)c1ccc(OCCN(C)C)cc1)c1ccccc1` | CP268 | 12 | inhibitor, single point |
| `CC/C(=C(\c1ccccc1)c1ccc(OCCN(C)C)cc1)c1ccccc1` | CP291 | 19.01 | inhibitor, single point |
| `CC/C(=C(\c1ccccc1)c1ccc(OCCN(C)C)cc1)c1ccccc1` | Dd2 | 12.59 | inhibitor, single point |
| `CC/C(=C(\c1ccccc1)c1ccc(OCCN(C)C)cc1)c1ccccc1` | CP256 | 8.912 | inhibitor, single point |
| `CC/C(=C(\c1ccccc1)c1ccc(OCCN(C)C)cc1)c1ccccc1` | P94_40 | 8.912 | inhibitor, partial curve, poor fit |
| `CC/C(=C(\c1ccccc1)c1ccc(OCCN(C)C)cc1)c1ccccc1` | AS120 | 15.85 | inhibitor, single point |
| `CC/C(=C(\c1ccccc1)c1ccc(OCCN(C)C)cc1)c1ccccc1` | P93_24 | 17.78 | inhibitor, single point |
| `CC/C(=C(\c1ccccc1)c1ccc(OCCN(C)C)cc1)c1ccccc1` | CP191 | 17.78 | inhibitor, single point |
| `CC/C(=C(\c1ccccc1)c1ccc(OCCN(C)C)cc1)c1ccccc1` | CP325 | 19.01 | inhibitor, partial curve, poor fit |
| `CC/C(=C(\c1ccccc1)c1ccc(OCCN(C)C)cc1)c1ccccc1` | PC15 | 10 | inhibitor, single point |
| `CC/C(=C(\c1ccccc1)c1ccc(OCCN(C)C)cc1)c1ccccc1` | CP237 | 11.22 | inhibitor, single point |
| `CC/C(=C(\c1ccccc1)c1ccc(OCCN(C)C)cc1)c1ccccc1` | TAB109 | 7.943 | inhibitor, single point |
| `CC/C(=C(\c1ccccc1)c1ccc(OCCN(C)C)cc1)c1ccccc1` | CP265 | 17.78 | inhibitor, single point |
| `CC/C(=C(\c1ccccc1)c1ccc(OCCN(C)C)cc1)c1ccccc1` | CP247 | 10 | inhibitor, single point |
| `CC/C(=C(\c1ccccc1)c1ccc(OCCN(C)C)cc1)c1ccccc1` | DIV17 | 10.69 | inhibitor, single point |
| `CC/C(=C(\c1ccccc1)c1ccc(OCCN(C)C)cc1)c1ccccc1` | CP252 | 17.78 | inhibitor, single point |
| `CC/C(=C(\c1ccccc1)c1ccc(OCCN(C)C)cc1)c1ccccc1` | C2A | 17.78 | inhibitor, single point |
| `CC/C(=C(\c1ccccc1)c1ccc(OCCN(C)C)cc1)c1ccccc1` | ATS95 | 14.13 | inhibitor, single point |
| `CC/C(=C(\c1ccccc1)c1ccc(OCCN(C)C)cc1)c1ccccc1` | CP238 | 10 | inhibitor, single point |
| `CC/C(=C(\c1ccccc1)c1ccc(OCCN(C)C)cc1)c1ccccc1` | AA1029 | 11.22 | inhibitor, single point |
| `CC/C(=C(\c1ccccc1)c1ccc(OCCN(C)C)cc1)c1ccccc1` | CP269 | 16.94 | inhibitor, single point |
| `CC/C(=C(\c1ccccc1)c1ccc(OCCN(C)C)cc1)c1ccccc1` | PC26 | 15.1 | inhibitor, single point |
| `CC/C(=C(\c1ccccc1)c1ccc(OCCN(C)C)cc1)c1ccccc1` | CP260 | 12.59 | inhibitor, single point |
| `CC(C)(C)NCC(O)c1cc(Cl)c(N)c(C(F)(F)F)c1` (stereo not drawn) | PC26 | 15.1 | inhibitor, single point |
| `CC(C)(C)NCC(O)c1cc(Cl)c(N)c(C(F)(F)F)c1` (stereo not drawn) | CP262 | 1.901 | inhibitor, partial curve, poor fit |
| `CC(C)(C)NCC(O)c1cc(Cl)c(N)c(C(F)(F)F)c1` (stereo not drawn) | CP286 | 10 | inhibitor, single point |
| `CC(C)(C)NCC(O)c1cc(Cl)c(N)c(C(F)(F)F)c1` (stereo not drawn) | CP291 | 6.746 | inhibitor, partial curve, poor fit |
| `CC(C)(C)NCC(O)c1cc(Cl)c(N)c(C(F)(F)F)c1` (stereo not drawn) | CP211 | 19.01 | inhibitor, single point |
| `CC(C)(C)NCC(O)c1cc(Cl)c(N)c(C(F)(F)F)c1` (stereo not drawn) | CP215 | 13.46 | inhibitor, single point |
| `CC(C)(C)NCC(O)c1cc(Cl)c(N)c(C(F)(F)F)c1` (stereo not drawn) | P94_40 | 3.162 | inhibitor, full curve, poor fit |
| `CC(C)(C)NCC(O)c1cc(Cl)c(N)c(C(F)(F)F)c1` (stereo not drawn) | CP269 | 19.01 | inhibitor, single point |
| `CC(C)(C)NCC(O)c1cc(Cl)c(N)c(C(F)(F)F)c1` (stereo not drawn) | ATS95 | 10 | inhibitor, single point |
| `CC(C)(C)NCC(O)c1cc(Cl)c(N)c(C(F)(F)F)c1` (stereo not drawn) | CP335 | 15.1 | inhibitor, single point |
| `CC(C)(C)NCC(O)c1cc(Cl)c(N)c(C(F)(F)F)c1` (stereo not drawn) | DIV30 | 15.1 | inhibitor, single point |
| `CC(C)(C)NCC(O)c1cc(Cl)c(N)c(C(F)(F)F)c1` (stereo not drawn) | CP268 | 15.1 | inhibitor, single point |
| `CC(C)(C)NCC(O)c1cc(Cl)c(N)c(C(F)(F)F)c1` (stereo not drawn) | CP194 | 19.01 | inhibitor, single point |
| `CC(C)(C)NCC(O)c1cc(Cl)c(N)c(C(F)(F)F)c1` (stereo not drawn) | CP203 | 15.1 | inhibitor, single point |
| `CC(C)(C)NCC(O)c1cc(Cl)c(N)c(C(F)(F)F)c1` (stereo not drawn) | CP325 | 19.01 | inhibitor, partial curve, poor fit |
| `CC(C)(C)NCC(O)c1cc(Cl)c(N)c(C(F)(F)F)c1` (stereo not drawn) | HB3 | 12.59 | inhibitor, single point |
| `CC(C)(C)NCC(O)c1cc(Cl)c(N)c(C(F)(F)F)c1` (stereo not drawn) | CP305 | 16.94 | inhibitor, single point |
| `CCOc1ccc2c3c1O[C@H]1[C@@H](O)C=C[C@H]4[C@@H](C2)N(C)CC[C@@]341` | CP211 | 16.94 | inhibitor, single point |

The first 5 entries again:

| compound | setting | potency (µM) | remark |
|---|---|---|---|
| `CC/C(=C(\c1ccccc1)c1ccc(OCCN(C)C)cc1)c1ccccc1` | N140 | 11.22 | inhibitor, single point |
| `CC/C(=C(\c1ccccc1)c1ccc(OCCN(C)C)cc1)c1ccccc1` | ATS189 | 12.59 | inhibitor, single point |
| `CC/C(=C(\c1ccccc1)c1ccc(OCCN(C)C)cc1)c1ccccc1` | ECU | 12.59 | inhibitor, single point |
| `CC/C(=C(\c1ccccc1)c1ccc(OCCN(C)C)cc1)c1ccccc1` | CP201 | 19.01 | inhibitor, single point |
| `CC/C(=C(\c1ccccc1)c1ccc(OCCN(C)C)cc1)c1ccccc1` | CP250 | 10 | inhibitor, single point |

From PubChem BioAssay record AID504749 (NCATS, 2011).